We go through one molecule from US20250164508A1, “G-PROTEIN COUPLED RECEPTOR ASSAY” (The Regents of the University of Michigan, priority 2022, published 2025).

Amino acid sequences for entries named in this document (tags omitted).
UniProt P35372: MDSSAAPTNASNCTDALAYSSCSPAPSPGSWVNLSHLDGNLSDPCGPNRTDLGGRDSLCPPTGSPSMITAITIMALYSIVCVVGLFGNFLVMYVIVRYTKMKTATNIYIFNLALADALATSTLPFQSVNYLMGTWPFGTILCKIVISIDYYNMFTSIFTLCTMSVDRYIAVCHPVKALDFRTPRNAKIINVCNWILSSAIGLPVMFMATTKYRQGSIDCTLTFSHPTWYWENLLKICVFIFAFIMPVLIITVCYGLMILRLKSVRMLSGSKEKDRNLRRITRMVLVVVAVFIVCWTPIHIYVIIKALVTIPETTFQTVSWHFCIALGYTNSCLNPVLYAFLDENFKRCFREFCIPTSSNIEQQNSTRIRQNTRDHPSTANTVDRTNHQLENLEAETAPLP

The assay concerns the target MOR-LgBit fusion protein (µ-opioid receptor fused to LgBiT) (UniProt P35372). Description: in-solution split NANOLUC complementation, DTT added.

Results are given in words; binding and its absence hold for the method and conditions named. Some results given as binding are weak or reduced against the parent protein; the word gives no strength.

As to VTGYRLFEEILGSKKKFDCVTDCIIKNNLKDSGLF [Gi peptidomimetic …], the binding result is listed as “binds”.
